{
  "source": "patent US20100021918A1",
  "about": "“METHOD FOR ASSAYING ACTION OF ANTITUMOR AGENT USING SPLICING DEFECTS AS INDEX” (Eisai R&D Management Co., Ltd., priority 2007, published 2010)",
  "tested_on": "peripheral blood mononuclear cells (PBMC)",
  "assay": "Microarray analysis (3), dose-dependent intron expression in PBMC at 3, 10, 30 nM, Table 5",
  "assay_type": "cell-based, human",
  "experimental": "PBMC was suspended in RPMI1640 medium (containing 10% FBS, penicillin, and streptomycin) to 5×10^6 cells/ml and 1 ml of the suspension was plated per well of a 24-well plate. Immediately, 111 μl of 10 times-concentrated (8E,12E,14E)-7-((4-cycloheptylpiperazin-1-yl)carbonyl)oxy-3,6,16,21-tetrahydroxy-6,10,12,16,20-pentamethyl-18,19-epoxytricosa-8,12,14-trien-11-olide was added to the well (six wells per each concentration tested). The cells were then cultured in an incubator with 5% carbon dioxide gas at 37° C. Three hours later, the supernatant was collected and centrifuged at 1500 rpm for five minutes. TRI reagent (SIGMA) (1 ml) was added to each well of the plate from which the supernatant was removed to harvest the cells, which was added to the centrifuged pellet to dissolve. RNA was purified in accordance with the protocol of TRI reagent. RNA was further purified using RNeasy (QIAGEN) and, in accordance with the protocol, DNaseI was added to the samples during the procedure. Absorbance at 260 nm was measured to quantify an amount of RNA.\nRibosomal RNA was removed from 1 μg of each total RNA of control cells (n=3) and cells with the treatment (n=3) using RiboMinus Human/Mouse Transcriptome Isolation Kit (Invitrogen). Single stranded cDNA synthesis, double stranded cDNA synthesis, cRNA synthesis, second single stranded cDNA synthesis, cDNA fragmentation, and cDNA labeling in order were carried out for total RNA from which ribosomal RNA was removed, using GeneChip Whole Transcript Sense Target Labeling and Control Reagents (Affymetrix) to make a cDNA probe. Subsequently, the cDNA probe was used for hybridization with Human Exon 1.0 ST Array (Affymetrix). The array was washed and stained, and luminescence intensity was measured by a scanner.\nThe expression level of the probe set and the gene was quantified by using Expression Console Ver. 1.0 (Affymetrix) with Summarization Method and Normalization Method being set to “Median polish as used in RMA” and “None”, respectively. The expression level of the probe was normalized with that of the gene.\nProbe sets showing that the normalized change in the level expression of the probe set in the group with the treatment at 30 nM was more than 5 times; the expression level of the probe set and the gene in the group with the treatment at 30 nM was more than 100; and probe set annotation was “extended, full, free”, were picked out. Regression analysis was performed with the probe sets extracted for the control group, the group with the treatment at 3 nM, the group with the treatment at 10 nM, and the group with the treatment at 30 nM to determine a p and q value for the slope of regression formula. A gene containing the probe sets with the q value of less than 5% was determined as a candidate gene with increased expression level of the intron regions (Table 5).\nIn Table 5, for the gene evaluated, gene name (Gene Name), abbreviated name (Gene Symbol), accession number (Accession), alias name (Synonym), transcription cluster number in Human Exon 1.0 ST Array (Human Exon 1.0 ST Array Transcription Cluster ID), chromosome number (Chromosome), type of strand (Strand), start region (Start), stop region (Stop), and change in expression level per 1 nM (Fold Change/nM) were respectively shown.",
  "note": "The source gives many values for each of these; only a part stands here.",
  "data": [
    {"smiles": "CCC(O)C(C)C1OC1CC(C)(O)/C=C/C=C(\\C)C1OC(=O)CC(O)CCC(C)(O)C(OC(=O)N2CCN(C3CCCCCC3)CC2)/C=C/C1C", "note": "(centres unmarked) [E7107, (8E,12E,14E)-7-((4-cycloheptylpiperazin-1-yl)carbonyl)oxy-3,6,16,21-tetrahydroxy-6,10,12,16,20-pentamethyl-18,19-epoxytricosa-8,12,14-trien-11-olide]", "values": [
      {"measurement": "Fold Change/nM", "setting": "gene IBRDC2 introns, regression over control, 3, 10, 30 nM", "value": 1.05, "unit": "nM⁻¹"},
      {"measurement": "Fold Change/nM", "setting": "gene IFIT3 introns, regression over control, 3, 10, 30 nM", "value": 1.05, "unit": "nM⁻¹"},
      {"measurement": "Fold Change/nM", "setting": "gene IK introns, regression over control, 3, 10, 30 nM", "value": 1.05, "unit": "nM⁻¹"},
      {"measurement": "Fold Change/nM", "setting": "gene ILF2, intron expression, 3, 10, 30 nM", "value": 1.06, "unit": "nM⁻¹"},
      {"measurement": "Fold Change/nM", "setting": "gene INTS6 introns, regression over control, 3, 10, 30 nM", "value": 1.05, "unit": "nM⁻¹"},
      {"measurement": "Fold Change/nM", "setting": "gene ITCH introns, regression over control, 3, 10, 30 nM", "value": 1.05, "unit": "nM⁻¹"},
      {"measurement": "Fold Change/nM", "setting": "gene KIAA0174 introns, regression over control, 3, 10, 30 nM", "value": 1.05, "unit": "nM⁻¹"},
      {"measurement": "Fold Change/nM", "setting": "gene KIAA0247 introns, regression over control, 3, 10, 30 nM", "value": 1.05, "unit": "nM⁻¹"},
      {"measurement": "Fold Change/nM", "setting": "gene KLF10 introns, regression over control, 3, 10, 30 nM", "value": 1.05, "unit": "nM⁻¹"},
      {"measurement": "Fold Change/nM", "setting": "gene KLHL6 introns, regression over control, 3, 10, 30 nM", "value": 1.05, "unit": "nM⁻¹"},
      {"measurement": "Fold Change/nM", "setting": "gene LAIR1, intron expression, 3, 10, 30 nM", "value": 1.06, "unit": "nM⁻¹"},
      {"measurement": "Fold Change/nM", "setting": "gene LDHA introns, regression over control, 3, 10, 30 nM", "value": 1.05, "unit": "nM⁻¹"},
      {"measurement": "Fold Change/nM", "setting": "gene MAP3K2, intron expression, 3, 10, 30 nM", "value": 1.06, "unit": "nM⁻¹"},
      {"measurement": "Fold Change/nM", "setting": "gene MAP3K8, intron expression, 3, 10, 30 nM", "value": 1.06, "unit": "nM⁻¹"},
      {"measurement": "Fold Change/nM", "setting": "gene MARCH7 introns, regression over control, 3, 10, 30 nM", "value": 1.05, "unit": "nM⁻¹"},
      {"measurement": "Fold Change/nM", "setting": "gene MARK2 introns, regression over control, 3, 10, 30 nM", "value": 1.05, "unit": "nM⁻¹"},
      {"measurement": "Fold Change/nM", "setting": "gene MAT2A, intron expression, 3, 10, 30 nM", "value": 1.06, "unit": "nM⁻¹"},
      {"measurement": "Fold Change/nM", "setting": "gene MDM2 introns, regression over control, 3, 10, 30 nM", "value": 1.05, "unit": "nM⁻¹"},
      {"measurement": "Fold Change/nM", "setting": "gene MKL1 introns, regression over control, 3, 10, 30 nM", "value": 1.05, "unit": "nM⁻¹"},
      {"measurement": "Fold Change/nM", "setting": "gene MX1, intron expression, 3, 10, 30 nM", "value": 1.06, "unit": "nM⁻¹"},
      {"measurement": "Fold Change/nM", "setting": "gene MXI1, intron expression, 3, 10, 30 nM", "value": 1.06, "unit": "nM⁻¹"},
      {"measurement": "Fold Change/nM", "setting": "gene MYST2 introns, regression over control, 3, 10, 30 nM", "value": 1.05, "unit": "nM⁻¹"},
      {"measurement": "Fold Change/nM", "setting": "gene N4BP1 introns, regression over control, 3, 10, 30 nM", "value": 1.05, "unit": "nM⁻¹"},
      {"measurement": "Fold Change/nM", "setting": "gene NAB1, intron expression, 3, 10, 30 nM", "value": 1.06, "unit": "nM⁻¹"},
      {"measurement": "Fold Change/nM", "setting": "gene NARS // SFXN3, intron expression, 3, 10, 30 nM", "value": 1.06, "unit": "nM⁻¹"},
      {"measurement": "Fold Change/nM", "setting": "gene NCKAP1L, intron expression, 3, 10, 30 nM", "value": 1.06, "unit": "nM⁻¹"},
      {"measurement": "Fold Change/nM", "setting": "gene NGRN introns, regression over control, 3, 10, 30 nM", "value": 1.05, "unit": "nM⁻¹"},
      {"measurement": "Fold Change/nM", "setting": "gene NR4A1 introns, regression over control, 3, 10, 30 nM", "value": 1.05, "unit": "nM⁻¹"},
      {"measurement": "Fold Change/nM", "setting": "gene NUP153, intron expression, 3, 10, 30 nM", "value": 1.06, "unit": "nM⁻¹"},
      {"measurement": "Fold Change/nM", "setting": "gene OPA1, intron expression, 3, 10, 30 nM", "value": 1.06, "unit": "nM⁻¹"},
      {"measurement": "Fold Change/nM", "setting": "gene OTUD4 introns, regression over control, 3, 10, 30 nM", "value": 1.05, "unit": "nM⁻¹"},
      {"measurement": "Fold Change/nM", "setting": "gene PAN3, intron expression, 3, 10, 30 nM", "value": 1.06, "unit": "nM⁻¹"},
      {"measurement": "Fold Change/nM", "setting": "gene PDE7A introns, regression over control, 3, 10, 30 nM", "value": 1.05, "unit": "nM⁻¹"},
      {"measurement": "Fold Change/nM", "setting": "gene PFKFB3 introns, regression over control, 3, 10, 30 nM", "value": 1.05, "unit": "nM⁻¹"},
      {"measurement": "Fold Change/nM", "setting": "gene PFTK1 introns, regression over control, 3, 10, 30 nM", "value": 1.05, "unit": "nM⁻¹"},
      {"measurement": "Fold Change/nM", "setting": "gene PIAS1 introns, regression over control, 3, 10, 30 nM", "value": 1.05, "unit": "nM⁻¹"},
      {"measurement": "Fold Change/nM", "setting": "gene PIK3C3, intron expression, 3, 10, 30 nM", "value": 1.05, "unit": "nM⁻¹"},
      {"measurement": "Fold Change/nM", "setting": "gene PPHLN1 introns, regression over control, 3, 10, 30 nM", "value": 1.05, "unit": "nM⁻¹"},
      {"measurement": "Fold Change/nM", "setting": "gene PPM1K, intron expression, 3, 10, 30 nM", "value": 1.06, "unit": "nM⁻¹"},
      {"measurement": "Fold Change/nM", "setting": "gene PPP4R2, intron expression, 3, 10, 30 nM", "value": 1.06, "unit": "nM⁻¹"},
      {"measurement": "Fold Change/nM", "setting": "gene PPP6C, intron expression, 3, 10, 30 nM", "value": 1.06, "unit": "nM⁻¹"},
      {"measurement": "Fold Change/nM", "setting": "gene PRKAG2 introns, regression over control, 3, 10, 30 nM", "value": 1.05, "unit": "nM⁻¹"},
      {"measurement": "Fold Change/nM", "setting": "gene PTPN1 introns, regression over control, 3, 10, 30 nM", "value": 1.05, "unit": "nM⁻¹"},
      {"measurement": "Fold Change/nM", "setting": "gene RAB18 introns, regression over control, 3, 10, 30 nM", "value": 1.05, "unit": "nM⁻¹"},
      {"measurement": "Fold Change/nM", "setting": "gene RAB21, intron expression, 3, 10, 30 nM", "value": 1.06, "unit": "nM⁻¹"},
      {"measurement": "Fold Change/nM", "setting": "gene RAD21 introns, regression over control, 3, 10, 30 nM", "value": 1.05, "unit": "nM⁻¹"},
      {"measurement": "Fold Change/nM", "setting": "gene RAPGEF1 introns, regression over control, 3, 10, 30 nM", "value": 1.05, "unit": "nM⁻¹"},
      {"measurement": "Fold Change/nM", "setting": "gene RAPGEF6 // FNIP1, intron expression, 3, 10, 30 nM", "value": 1.06, "unit": "nM⁻¹"},
      {"measurement": "Fold Change/nM", "setting": "gene RBM4, intron expression, 3, 10, 30 nM", "value": 1.06, "unit": "nM⁻¹"},
      {"measurement": "Fold Change/nM", "setting": "gene RBM16 // TIAM2 introns, regression over control, 3, 10, 30 nM", "value": 1.05, "unit": "nM⁻¹"},
      {"measurement": "Fold Change/nM", "setting": "gene RBM17, intron expression, 3, 10, 30 nM", "value": 1.06, "unit": "nM⁻¹"},
      {"measurement": "Fold Change/nM", "setting": "gene RBM22 introns, regression over control, 3, 10, 30 nM", "value": 1.05, "unit": "nM⁻¹"},
      {"measurement": "Fold Change/nM", "setting": "gene RBM25 introns, regression over control, 3, 10, 30 nM", "value": 1.05, "unit": "nM⁻¹"},
      {"measurement": "Fold Change/nM", "setting": "gene RIN3 introns, regression over control, 3, 10, 30 nM", "value": 1.05, "unit": "nM⁻¹"},
      {"measurement": "Fold Change/nM", "setting": "gene ROCK1, intron expression, 3, 10, 30 nM", "value": 1.06, "unit": "nM⁻¹"},
      {"measurement": "Fold Change/nM", "setting": "gene SEC24C introns, regression over control, 3, 10, 30 nM", "value": 1.05, "unit": "nM⁻¹"}
    ]}
  ]
}
